Source: patent publication EP4785956A2
Numbering of substitutions follows the chain as printed. Results are given in words; binding and its absence hold for the method and conditions named. Some binding calls cover weakened binding; strength is not graded here. One block for each binder: values may come before it.

The chains behind the UniProt entries cited, without tags or fusion partners. Where a name states a change or a piece, a line headed by the entry shows the natural chain unless it says otherwise.
UniProt P01031: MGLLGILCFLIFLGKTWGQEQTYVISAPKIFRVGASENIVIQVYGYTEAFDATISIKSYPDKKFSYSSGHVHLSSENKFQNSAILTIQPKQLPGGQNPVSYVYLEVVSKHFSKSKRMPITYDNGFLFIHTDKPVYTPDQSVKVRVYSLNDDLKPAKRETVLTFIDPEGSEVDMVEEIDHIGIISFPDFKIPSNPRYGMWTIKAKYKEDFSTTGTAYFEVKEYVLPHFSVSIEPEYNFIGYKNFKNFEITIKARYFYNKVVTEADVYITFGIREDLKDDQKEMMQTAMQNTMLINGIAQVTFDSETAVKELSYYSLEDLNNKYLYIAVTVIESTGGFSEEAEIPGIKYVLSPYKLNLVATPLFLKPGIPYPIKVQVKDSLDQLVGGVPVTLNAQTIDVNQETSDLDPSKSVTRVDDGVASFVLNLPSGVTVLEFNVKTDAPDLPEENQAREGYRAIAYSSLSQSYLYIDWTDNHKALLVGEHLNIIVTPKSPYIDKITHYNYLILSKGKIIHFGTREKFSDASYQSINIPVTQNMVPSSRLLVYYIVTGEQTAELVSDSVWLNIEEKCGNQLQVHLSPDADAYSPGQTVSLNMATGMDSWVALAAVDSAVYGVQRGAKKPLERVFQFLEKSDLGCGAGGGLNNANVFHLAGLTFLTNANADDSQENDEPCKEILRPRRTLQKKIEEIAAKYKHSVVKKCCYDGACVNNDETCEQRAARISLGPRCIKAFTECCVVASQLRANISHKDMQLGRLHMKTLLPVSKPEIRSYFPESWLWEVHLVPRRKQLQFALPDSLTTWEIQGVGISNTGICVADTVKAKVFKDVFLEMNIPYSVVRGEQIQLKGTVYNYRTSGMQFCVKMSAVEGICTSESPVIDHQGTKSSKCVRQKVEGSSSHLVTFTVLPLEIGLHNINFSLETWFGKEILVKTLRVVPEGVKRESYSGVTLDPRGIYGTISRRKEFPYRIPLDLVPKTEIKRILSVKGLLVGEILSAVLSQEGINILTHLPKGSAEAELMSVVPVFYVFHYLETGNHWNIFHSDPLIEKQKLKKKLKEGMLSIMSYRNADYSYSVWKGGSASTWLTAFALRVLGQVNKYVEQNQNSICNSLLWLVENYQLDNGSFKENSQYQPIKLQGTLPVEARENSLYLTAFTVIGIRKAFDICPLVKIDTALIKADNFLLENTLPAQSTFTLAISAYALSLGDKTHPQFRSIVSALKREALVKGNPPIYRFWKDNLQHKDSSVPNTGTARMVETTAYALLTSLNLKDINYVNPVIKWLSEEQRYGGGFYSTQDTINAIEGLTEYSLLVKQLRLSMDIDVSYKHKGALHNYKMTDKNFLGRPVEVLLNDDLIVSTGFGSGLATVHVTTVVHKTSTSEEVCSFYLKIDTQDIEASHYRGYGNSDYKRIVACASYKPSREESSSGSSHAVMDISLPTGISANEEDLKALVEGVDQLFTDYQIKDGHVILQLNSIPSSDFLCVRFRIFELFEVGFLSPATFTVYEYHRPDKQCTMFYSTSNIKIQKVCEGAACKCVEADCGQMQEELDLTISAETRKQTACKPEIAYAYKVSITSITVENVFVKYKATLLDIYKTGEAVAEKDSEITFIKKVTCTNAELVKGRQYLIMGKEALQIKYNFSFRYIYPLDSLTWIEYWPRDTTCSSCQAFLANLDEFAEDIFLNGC

Columns and labels:
[1] = biological target: human C5 point mutant K109A (human) (UniProt P01031); experiment: Western blot, C5 in FS293 culture medium, reducing SDS-PAGE
[2] = biological target: recombinant human C5 (human) (UniProt P01031); experiment: as above
[3] = biological target: human C5 point mutant E48A (human) (UniProt P01031); experiment: as above
[4] = biological target: recombinant human C5 (human) (UniProt P01031); experiment: Western blot

binding [1]: binds | binding [2]: binds
B1: CFA0672 (antibody, V domains shown)
VH: QSVEESGGRLVTPGTPLTLTCTASGFSLSGNAINWVRQAPGKGLEWIGCIYTGSDTTYYATWAKGRFTISKTSTTVDLKIASPTTEDTATYFCARGSGLWGPGTLVTVSS
VL: DVVMTQTPASVSAPVGGTVTIKCQASQNIYSLLAWYQQKPGQPPKLLIYHTSDLASGVPSRFRGSGSGTEFTLTISDLECADAATYYCQCTAYGSSDVGGTFGGGTTVVVE

binding [2]: binds
B2: CFA0307 (antibody, V domains shown)
VH: QSLEESGGGLVKPGASLTLTCKASGIDFSNFYYICWVRQAPGKGLDLIACIYTVSGYTYYASWAKGRLTISKTSSTTVTLQMTSLTAADTATYFCARDLHAGITNLWGPGTLVTVSS
VL: AIEMTQTPFSVSAAVGGTVTIKCQASQNIYSNLAWYQQKPGQRPKLLIYGASNLESGVPSRFKGSGSGTEYTLTISDLECADAATYYCLQGYSYSNVDDAFGGGTEVVVK

binding [2]: binds
B3: CFA0501 (antibody, V domains shown)
VH: QSVEESGGRLVTPGTPLTLTCTASGFSLSSYYMNWVRQAPGKGLEWIGMIYGSGATYYASWAKGRFTISKTSSTTVDLKMTSLTTEDTATYFCARQIYSGDNNDNFWGPGTLVTVSS
VL: AYDMTQTPASVEVAVGGTVTINCQASESISNWLAWYQQKPGQRPKLLIYRASTLASGVSSRFKGSGSGTQFTLTISGVECDDAATYYCQQDYSSSNVDNTFGGGTKVVVE

binding [2]: binds
B4: CFA0538 (antibody, V domains shown)
VH: B3 VH
VL: B3 VL with K106T

binding [1]: binds | binding [2]: binds
B5: CFA0666 (antibody, V domains shown)
VH: QSVEESGGRLVTPGTPLTLTCTVSGFSLSTYAMGWVRQAPGKGLEWIGTIDTGDNSFYANWAKGRFTISKTSTTVDLKITSPTAEDTATYFCARNDGSVYNLFNLWGPGTLVTVSS
VL: DVVMTQTPASVSAAVGGTVTIKCQASENIYSALSWYQQKPGLRPRLLIYYASTLASGVPSRFKGSRSGTEFTLTISDLECADAATYYCQQYYDINSVDNTFGGGTKVVVE

binding [3]: binds | binding [1]: binds | binding [2]: binds
B6: CFA0675 (antibody, V domains shown)
VH: B5 VH with K70R
VL: B5 VL with T85S

binding [3]: binds | binding [2]: binds | binding [4]: binds
B7: CFA0305 (antibody, V domains shown)
VH: QSLEESGGDLVKPGASLAVTCTASGFSSSSSYYMCWVRQAPGKGLEWIGCIYTGSGATYYASWAKGRFTISKTSSTTVTLQMTSLTVADTATYFCASDGGYVTPTHAMYLWGPGTLVTVSS
VL: DVVMTQTPASVSAAVGGTVTIKCQASQNIGSDLAWYQQKPGQPPRLLIYGASKLASGVSSRFSGSGSGKEFTLTISDLECADAVTYYCQCTFVGSSYGNAFGGGTEVVVK

binding [2]: binds
B8: CFA0366 (antibody, V domains shown)
VH: QSLEESGGDLVKPGASLSLTCTAAGLDFSSSYYMCWVRQAPGKGLEWIACIYAGSSGIIYYANWAKGRFTISRPSSTTVTLQMTSLTAADTATYFCATYPTYGDGGHAFNLWGPGTLVTVSS
VL: AQVLTQTPSSVSAAVGGTVTINCQSSQSVYSSDYLSWYQQKPGQPPKLLIYEASKLASGVPPRFSGSGSGTQFTLTISGVQCDDAATYYCQGTYYSSGWYFAFGGGTEVVVK

binding [1]: binds | binding [2]: binds
B9: CFA0599 (antibody, V domains shown)
VH: QSVEESGGRLVTPGTPLTLTCTVSGLSLSDNTMTWVRQAPGKGLEWIGIISFGGDAYYASWAKGRFPISKTSTTVDLRITSPTTEDTATYFCARVGAGNIFWYFDLWGPGTLVTVSS
VL: AYDMTQTPASVEVSVGGTVTIKCQASESIYSALAWYQQKPGQPPKLLIYSASTLASGVPSRFKGSGSGTEYTLTISDLECADAATYYCQQYYSSTNVHNSFGGGTTVVVE
